Measurements from PMC8847397.
These are yes or no findings as the source states them, for the method shown. In cells and extracts the contact can be indirect. Some binding calls cover weakened binding; strength is not graded here. For some assays here: Where a sequence is shown, tags or fusion partners need not be part of it.

Amino acid sequences for entries named in this document (tags omitted). Residues count along the entry.
UniProt P55854, residues 1-92: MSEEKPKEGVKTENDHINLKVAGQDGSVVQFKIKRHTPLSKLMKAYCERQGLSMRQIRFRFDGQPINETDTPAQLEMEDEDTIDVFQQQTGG

T1: c-Myc-SENP1 (human) (UniProt Q9P0U3)
T1 sequence: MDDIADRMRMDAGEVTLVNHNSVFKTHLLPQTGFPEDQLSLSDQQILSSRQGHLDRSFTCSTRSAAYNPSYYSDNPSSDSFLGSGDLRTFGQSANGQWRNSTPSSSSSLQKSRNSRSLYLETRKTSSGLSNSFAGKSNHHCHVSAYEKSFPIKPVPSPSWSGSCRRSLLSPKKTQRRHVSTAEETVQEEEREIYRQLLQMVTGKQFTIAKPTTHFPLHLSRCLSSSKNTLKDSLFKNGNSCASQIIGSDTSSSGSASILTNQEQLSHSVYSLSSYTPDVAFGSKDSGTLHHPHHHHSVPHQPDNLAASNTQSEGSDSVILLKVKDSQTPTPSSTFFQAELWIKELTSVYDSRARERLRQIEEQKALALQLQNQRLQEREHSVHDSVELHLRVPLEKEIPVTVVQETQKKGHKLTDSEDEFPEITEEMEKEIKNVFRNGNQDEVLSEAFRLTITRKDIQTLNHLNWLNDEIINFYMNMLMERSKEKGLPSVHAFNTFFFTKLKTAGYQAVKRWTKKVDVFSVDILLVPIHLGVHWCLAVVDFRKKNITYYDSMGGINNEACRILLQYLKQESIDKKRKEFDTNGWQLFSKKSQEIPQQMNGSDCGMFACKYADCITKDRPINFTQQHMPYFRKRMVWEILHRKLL

T2: endogenous SENP1 (SUMO-specific protease 1) in Jurkat E6.1 T cells (human (endogenous in Jurkat E6.1)) (UniProt Q9P0U3)
T2 sequence: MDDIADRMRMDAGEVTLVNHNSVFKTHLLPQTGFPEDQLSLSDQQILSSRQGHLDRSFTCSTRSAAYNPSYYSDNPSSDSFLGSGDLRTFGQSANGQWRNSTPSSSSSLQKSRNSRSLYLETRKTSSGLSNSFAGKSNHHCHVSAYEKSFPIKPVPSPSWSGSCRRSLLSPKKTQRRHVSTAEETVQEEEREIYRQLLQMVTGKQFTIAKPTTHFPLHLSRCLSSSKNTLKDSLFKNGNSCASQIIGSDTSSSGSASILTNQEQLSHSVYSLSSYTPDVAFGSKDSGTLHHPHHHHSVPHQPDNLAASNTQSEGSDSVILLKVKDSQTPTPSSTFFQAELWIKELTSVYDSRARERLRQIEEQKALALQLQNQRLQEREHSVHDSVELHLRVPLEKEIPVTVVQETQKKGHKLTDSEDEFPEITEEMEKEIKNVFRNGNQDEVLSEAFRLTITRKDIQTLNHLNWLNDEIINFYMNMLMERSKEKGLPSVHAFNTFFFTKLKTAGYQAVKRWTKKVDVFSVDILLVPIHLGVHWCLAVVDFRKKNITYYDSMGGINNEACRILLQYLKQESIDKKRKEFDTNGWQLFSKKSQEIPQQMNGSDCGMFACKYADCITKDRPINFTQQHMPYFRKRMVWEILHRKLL


Experiments:
[1] = biological target: T1, c-Myc-SENP1 (human); assay: co-IP; HEK293T cells transfected with c-Myc-SENP1 and HA-Lck; lysis in 1% Nonidet P40, 150 mM NaCl, 20 mM Tris-HCl pH 7.5, 5 mM EDTA; protein G Sepharose, 4°C
[2] = biological target: T2, endogenous SENP1 (SUMO-specific protease 1) in Jurkat E6.1 T cells (human (endogenous in Jurkat E6.1)); assay: co-IP; endogenous proteins of Jurkat E6.1 T cells; lysis in 1% Nonidet P40, 150 mM NaCl, 20 mM Tris-HCl pH 7.5, 5 mM EDTA; protein G Sepharose, 4°C
[3] = biological target: GST-SUMO3 (1-92 aa) (human) (UniProt P55854); assay: pull-down; purified GST-SUMO1 (1-97 aa) or GST-SUMO3 (1-92 aa) immobilised on glutathione beads, incubated at 4°C overnight with lysates of transfected HEK293T cells; western blot; only the target purified

| binding [3] | Molecule | also measured |
| --- | --- | --- |
|  | HA-Lck (from UniProt P06239-1 1-509) (enzyme) | binding [1]: binds |
|  | endogenous Lck in Jurkat E6.1 T cells (from UniProt P06239-1 1-509) (enzyme) | binding [2]: binds |
| binds | SENP1 WT (in lysate of transfected HEK293T cells, GST pull-down) (enzyme, UniProt Q9P0U3-1 1-644) MDDIADRMRMDAGEVTLVNHNSVFKTHLLPQTGFPEDQLSLSDQQILSSRQGHLDRSFTCSTRSAAYNPSYYSDNPSSDSFLGSGDLRTFGQSANGQWRNSTPSSSSSLQKSRNSRSLYLETRKTSSGLSNSFAGKSNHHCHVSAYEKSFPIKPVPSPSWSGSCRRSLLSPKKTQRRHVSTAEETVQEEEREIYRQLLQMVTGKQFTIAKPTTHFPLHLSRCLSSSKNTLKDSLFKNGNSCASQIIGSDTSSSGSASILTNQEQLSHSVYSLSSYTPDVAFGSKDSGTLHHPHHHHSVPHQPDNLAASNTQSEGSDSVILLKVKDSQTPTPSSTFFQAELWIKELTSVYDSRARERLRQIEEQKALALQLQNQRLQEREHSVHDSVELHLRVPLEKEIPVTVVQETQKKGHKLTDSEDEFPEITEEMEKEIKNVFRNGNQDEVLSEAFRLTITRKDIQTLNHLNWLNDEIINFYMNMLMERSKEKGLPSVHAFNTFFFTKLKTAGYQAVKRWTKKVDVFSVDILLVPIHLGVHWCLAVVDFRKKNITYYDSMGGINNEACRILLQYLKQESIDKKRKEFDTNGWQLFSKKSQEIPQQMNGSDCGMFACKYADCITKDRPINFTQQHMPYFRKRMVWEILHRKLL |  |
| binds | SENP1 Y270F (in lysate of transfected HEK293T cells, GST pull-down) (enzyme, UniProt Q9P0U3-1 1-644) MDDIADRMRMDAGEVTLVNHNSVFKTHLLPQTGFPEDQLSLSDQQILSSRQGHLDRSFTCSTRSAAYNPSYYSDNPSSDSFLGSGDLRTFGQSANGQWRNSTPSSSSSLQKSRNSRSLYLETRKTSSGLSNSFAGKSNHHCHVSAYEKSFPIKPVPSPSWSGSCRRSLLSPKKTQRRHVSTAEETVQEEEREIYRQLLQMVTGKQFTIAKPTTHFPLHLSRCLSSSKNTLKDSLFKNGNSCASQIIGSDTSSSGSASILTNQEQLSHSVFSLSSYTPDVAFGSKDSGTLHHPHHHHSVPHQPDNLAASNTQSEGSDSVILLKVKDSQTPTPSSTFFQAELWIKELTSVYDSRARERLRQIEEQKALALQLQNQRLQEREHSVHDSVELHLRVPLEKEIPVTVVQETQKKGHKLTDSEDEFPEITEEMEKEIKNVFRNGNQDEVLSEAFRLTITRKDIQTLNHLNWLNDEIINFYMNMLMERSKEKGLPSVHAFNTFFFTKLKTAGYQAVKRWTKKVDVFSVDILLVPIHLGVHWCLAVVDFRKKNITYYDSMGGINNEACRILLQYLKQESIDKKRKEFDTNGWQLFSKKSQEIPQQMNGSDCGMFACKYADCITKDRPINFTQQHMPYFRKRMVWEILHRKLL |  |
| binds | SENP1 Y270E (in lysate of transfected HEK293T cells, GST pull-down) (enzyme, UniProt Q9P0U3-1 1-644) MDDIADRMRMDAGEVTLVNHNSVFKTHLLPQTGFPEDQLSLSDQQILSSRQGHLDRSFTCSTRSAAYNPSYYSDNPSSDSFLGSGDLRTFGQSANGQWRNSTPSSSSSLQKSRNSRSLYLETRKTSSGLSNSFAGKSNHHCHVSAYEKSFPIKPVPSPSWSGSCRRSLLSPKKTQRRHVSTAEETVQEEEREIYRQLLQMVTGKQFTIAKPTTHFPLHLSRCLSSSKNTLKDSLFKNGNSCASQIIGSDTSSSGSASILTNQEQLSHSVESLSSYTPDVAFGSKDSGTLHHPHHHHSVPHQPDNLAASNTQSEGSDSVILLKVKDSQTPTPSSTFFQAELWIKELTSVYDSRARERLRQIEEQKALALQLQNQRLQEREHSVHDSVELHLRVPLEKEIPVTVVQETQKKGHKLTDSEDEFPEITEEMEKEIKNVFRNGNQDEVLSEAFRLTITRKDIQTLNHLNWLNDEIINFYMNMLMERSKEKGLPSVHAFNTFFFTKLKTAGYQAVKRWTKKVDVFSVDILLVPIHLGVHWCLAVVDFRKKNITYYDSMGGINNEACRILLQYLKQESIDKKRKEFDTNGWQLFSKKSQEIPQQMNGSDCGMFACKYADCITKDRPINFTQQHMPYFRKRMVWEILHRKLL |  |
